Measured values reported in patent publication US11548845B2, “Methods of isolating phenols from phenol-containing media” (WISCONSIN ALUMNI RESEARCH FOUNDATION, priority 2019, dated 2023).
At least one structure is not confirmed: it was looked up by name or label, or the drawing left a doubt. Marks after values point to notes of the source that are not given here.

Assay: Interaction of 1% w/v lecithin with individual polyphenols, depletion from solution by HPLC
Settings: pH 2.43, anthocyanins depleted from single-strength cranberry juice, others from aqueous solution
Method: Aqueous polyphenol solutions near saturation were prepared by dissolving the individual polyphenols in 50 mL ultrapure water. Depends on their solubility in water, the polyphenols solutions were made in different concentrations. […] The pH of the solution was then adjusted to ˜2.43 using 6 M HCl in order to approximate the pH of juice. The adjusted solution was centrifuged at 3220×g for 20 min to remove any undissolved solids. Next, 1% w/v lecithin was added to 10 mL of the supernatant containing the polyphenols or the phenolic acids. The mixture was vortexed for 1 min and then centrifuged at 3220×g for 20 min to pellet any precipitate. The supernatant was transferred to a 2 mL microcentrifuge tube and was centrifuged for another 20 min at 21130×g before HPLC analysis. The depletion of individual polyphenol content expressed as a percent was determined according to the following equation: Polyphenol and phenolic acid content remaining in the supernatant were quantitated by reverse phase HPLC using a Dionex Ultimate 3000 HPLC equipped with an LPG-3400 quaternary pump, a WPS-3000 analytical autosampler, a DAD-3000 diode array detector, and an FLD-3100 fluorescence detector. […] Separation was with formic acid:water (5:95, v/v) (A) and methanol (B). The flow rate was set to 1 mL/min. The gradient was initially 5% B for 1 min, then increased to 35% B over 39 min, from 35% to 95% B over the next 10 min, and held constant at 95% B for 5 min, then decreased to 5% B over 2 min, and re-equilibrated at 5% B for the remaining 8 min. The column oven was set to 30° C. The absorbance was monitored at 254, 280, 370 and 520 nm. […] The gallic acid peaks in the 280 nm chromatogram was quantitated on the basis of authentic external standards. […] The flow rate was set to 0.5 mL/min. The gradient began at 15% B for 2 min, increased to 90% B over 6 min, then decreased to 15% B over 1 min and re-equilibrated at 15% B for the remaining 1 min. The column oven was set to 25° C. We collected absorbance data at 254, 280, 370 and 520 nm. All the peaks were identified in comparison to authentic external standards.

SMILES: C[C@@H]1O[C@@H](OC[C@H]2O[C@@H](Oc3c(-c4ccc(O)c(O)c4)oc4cc(O)cc(O)c4c3=O)[C@H](O)[C@@H](O)[C@@H]2O)[C@H](O)[C@H](O)[C@H]1O [quercetin-3-O-rutinoside]
- Depletion %: 0^a %
- Depletion % (listed as Quercetin-3-rutinoside): no interaction with lecithin
- Depletion % (listed as Rutin): did not induce lecithin precipitation
- Depletion % (listed as quercetin-3-rutinoside): did not induce precipitation of lecithin phospholipids
